# Results are given in words; binding and its absence hold for the method and conditions named.
# Protein sequences, listed by entry. Tags and fused reporters are not part of them. Lines headed by an entry give the natural chain unless they say otherwise; changes in a name come on top.
# UniProt P01903: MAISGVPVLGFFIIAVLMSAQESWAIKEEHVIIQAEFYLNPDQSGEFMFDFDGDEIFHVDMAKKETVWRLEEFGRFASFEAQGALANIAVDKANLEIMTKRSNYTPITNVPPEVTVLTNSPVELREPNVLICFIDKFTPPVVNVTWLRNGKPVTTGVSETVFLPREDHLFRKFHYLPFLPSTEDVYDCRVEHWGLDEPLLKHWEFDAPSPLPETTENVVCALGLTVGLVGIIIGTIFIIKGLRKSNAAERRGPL
# Legend:
# Test in all cases: competitive MHC II binding assay; number of alleles bound
# [1] = target: DRB3_0101 (human) (UniProt P01903)
# [2] = target: HLA-DQA10401-DQB10402 (human)
# [3] = target: HLA-DPA10103-DPB10401 (human)
# [4] = target: HLA-DQA10301-DQB10302 (human)
# [5] = target: HLA-DPA10103-DPB10201 (human)
# [6] = target: DRB1_0101 (human) (UniProt P01903)
# [7] = target: DRB1_0802 (human) (UniProt P01903)
# [8] = target: DRB3_0202 (human) (UniProt P01903)
# [9] = target: DRB5_0101 (human) (UniProt P01903)
# [10] = target: DRB4_0101 (human) (UniProt P01903)
# [11] = target: HLA-DQA10101-DQB10501 (human)
# [12] = target: HLA-DPA10201-DPB11401 (human)
# [13] = target: HLA-DPA10103-DPB10301 (human)
# [14] = target: DRB1_0405 (human) (UniProt P01903)
# [15] = target: HLA-DQA10501-DQB10301 (human)
# [16] = target: HLA-DQA10102-DQB10602 (human)
# [17] = target: DRB1_0901 (human) (UniProt P01903)
# [18] = target: HLA-DQA10501-DQB10201 (human)
# [19] = target: DRB1_1501 (human) (UniProt P01903)
# [20] = target: HLA-DPA10202-DPB10501 (human)
# [21] = target: DRB1_0701 (human) (UniProt P01903)
# [22] = target: HLA-DPA10103-DPB10402 (human)
# [23] = target: HLA-DPA10201-DPB10101 (human)
# [24] = target: DRB1_0401 (human) (UniProt P01903)
# [25] = target: DRB1_1302 (human) (UniProt P01903)
# [26] = target: DRB1_1101 (human) (UniProt P01903)
# [27] = target: DRB1_0301 (human) (UniProt P01903)
# [28] = target: DRB1_1201 (human) (UniProt P01903)
binder,measurement,setting,value
ELVDSASQHG [HDM03W],binding,[1],no binding (tested: IC50 cutoff 1000 nM)
same,binding,[2],no binding (tested: IC50 cutoff 1000 nM)
same,binding,[3],no binding (tested: IC50 cutoff 1000 nM)
same,binding,[4],no binding (tested: IC50 cutoff 1000 nM)
same,binding,[5],no binding (tested: IC50 cutoff 1000 nM)
same,binding,[6],no binding (tested: IC50 cutoff 1000 nM)
same,binding,[7],no binding (tested: IC50 cutoff 1000 nM)
same,binding,[8],no binding (tested: IC50 cutoff 1000 nM)
same,binding,[9],no binding (tested: IC50 cutoff 1000 nM)
same,binding,[10],no binding (tested: IC50 cutoff 1000 nM)
same,binding,[11],no binding (tested: IC50 cutoff 1000 nM)
same,binding,[12],no binding (tested: IC50 cutoff 1000 nM)
same,binding,[13],no binding (tested: IC50 cutoff 1000 nM)
same,binding,[14],no binding (tested: IC50 cutoff 1000 nM)
same,binding,[15],no binding (tested: IC50 cutoff 1000 nM)
same,binding,[16],no binding (tested: IC50 cutoff 1000 nM)
same,binding,[17],no binding (tested: IC50 cutoff 1000 nM)
same,binding,[18],no binding (tested: IC50 cutoff 1000 nM)
same,binding,[19],no binding (tested: IC50 cutoff 1000 nM)
same,binding,[20],no binding (tested: IC50 cutoff 1000 nM)
same,binding,[21],no binding (tested: IC50 cutoff 1000 nM)
same,binding,[22],no binding (tested: IC50 cutoff 1000 nM)
same,binding,[23],no binding (tested: IC50 cutoff 1000 nM)
same,binding,[24],no binding (tested: IC50 cutoff 1000 nM)
same,binding,[25],no binding (tested: IC50 cutoff 1000 nM)
same,binding,[26],no binding (tested: IC50 cutoff 1000 nM)
same,binding,[27],no binding (tested: IC50 cutoff 1000 nM)
same,binding,[28],no binding (tested: IC50 cutoff 1000 nM)

# Source: patent US20160251403A1, “PEPTIDE COMBINATIONS AND USES THEREOF IN TREATING DUST MITE ALLERGY” (ALK-ABELLO A/S, priority 2013, published 2016)
